In patent US20100172938A1:
No constants are given. Whether binding was seen depends on the method and setting. Some results given as binding are weak or reduced against the parent protein; the word gives no strength. Tags and fused reporters may be left off the sequences shown.

Target: T1, wild type SA-protein (S-layer protein, slpA product) of L. acidophilus ATCC 4356 (Lactobacillus acidophilus ATCC 4356) (UniProt P35829)
T1 sequence: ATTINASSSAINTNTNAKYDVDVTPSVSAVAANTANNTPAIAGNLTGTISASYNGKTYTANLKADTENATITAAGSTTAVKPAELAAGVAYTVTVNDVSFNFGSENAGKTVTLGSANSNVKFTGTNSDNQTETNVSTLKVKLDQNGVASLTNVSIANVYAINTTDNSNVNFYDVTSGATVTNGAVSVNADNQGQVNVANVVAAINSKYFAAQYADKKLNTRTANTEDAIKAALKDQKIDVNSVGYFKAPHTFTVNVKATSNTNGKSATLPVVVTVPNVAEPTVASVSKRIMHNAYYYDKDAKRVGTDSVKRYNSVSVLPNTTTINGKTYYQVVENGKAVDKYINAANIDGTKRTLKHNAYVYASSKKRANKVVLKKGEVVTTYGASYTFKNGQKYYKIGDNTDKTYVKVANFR
Assay: mosaic S-layer of L. acidophilus transformants; 5 M LiCl extraction and FACS

binding: binds
B1: mutant SA-protein SA13c (c-myc insertion at position 156), produced in L. acidophilus (protein)
chain: ATTINASSSAINTNTNAKYDVDVTPSVSAVAANTANNTPAIAGNLTGTISASYNGKTYTANLKADTENATITAAGSTTAVKPAELAAGVAYTVTVNDVSFNFGSENAGKTVTLGSANSNVKFTGTNSDNQTETNVSTLKVKLDQNGVASLTNVSITMVNEQKLISEEDLNARGIANVYAINTTDNSNVNFYDVTSGATVTNGAVSVNADNQGQVNVANVVAAINSKYFAAQYADKKLNTRTANTEDAIKAALKDQKIDVNSVGYFKAPHTFTVNVKATSNTNGKSATLPVVVTVPNVAEPTVASVSKRIMHNAYYYDKDAKRVGTDSVKRYNSVSVLPNTTTINGKTYYQVVENGKAVDKYINAANIDGTKRTLKHNAYVYASSKKRANKVVLKKGEVVTTYGASYTFKNGQKYYKIGDNTDKTYVKVANF
